These results are taken from paper PMC12520468.

Construct, isoform or probe ends are uncertain for at least one entry. A negative result means that nothing was seen under these conditions.

This data set deals with RPL6 (purified) (UniProt Q02878). As to the kind of experiment: EMSA. Particulars: REMSA: LightShift Chemiluminescent RNA EMSA kit, 8% polyacrylamide, pH and temperature not stated; recombinant protein; label: biotin; probe letters rebuilt from the primers and the genome; part of a longer molecule. For orientation: Mobility shift assays separate free from complexed probe on a gel.

As for “GCGGACUGUCCUUUCGUGGCUCACUCCCUUUCCUCUGCUGCCGCUCGGUCACGCUUGUGCCCGAAGGAGGAAACAGUGACAGACCUGGAGACUGCAGUUCUCUAUCCUUCACACAGCUCUUUCACC [HMGCS1 5'UTR]”, the binding result is “no binding”.
